The values that follow come from publication PMC11392818.

The chains behind the UniProt entries cited, without tags or fusion partners.
UniProt Q8N884: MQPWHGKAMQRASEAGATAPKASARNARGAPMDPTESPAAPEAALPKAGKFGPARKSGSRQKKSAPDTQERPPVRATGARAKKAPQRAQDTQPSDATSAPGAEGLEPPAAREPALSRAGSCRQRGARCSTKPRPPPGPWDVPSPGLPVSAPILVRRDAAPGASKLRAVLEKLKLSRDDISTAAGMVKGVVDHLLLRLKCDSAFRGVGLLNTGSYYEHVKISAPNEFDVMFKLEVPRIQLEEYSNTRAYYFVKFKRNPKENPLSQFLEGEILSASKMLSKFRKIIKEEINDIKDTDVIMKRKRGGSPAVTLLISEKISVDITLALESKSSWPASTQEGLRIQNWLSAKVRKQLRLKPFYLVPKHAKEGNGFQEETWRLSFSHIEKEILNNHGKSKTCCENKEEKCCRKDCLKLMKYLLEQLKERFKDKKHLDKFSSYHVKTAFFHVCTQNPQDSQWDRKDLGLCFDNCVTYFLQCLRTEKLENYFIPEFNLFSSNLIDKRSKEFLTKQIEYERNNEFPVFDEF
UniProt Q86U86: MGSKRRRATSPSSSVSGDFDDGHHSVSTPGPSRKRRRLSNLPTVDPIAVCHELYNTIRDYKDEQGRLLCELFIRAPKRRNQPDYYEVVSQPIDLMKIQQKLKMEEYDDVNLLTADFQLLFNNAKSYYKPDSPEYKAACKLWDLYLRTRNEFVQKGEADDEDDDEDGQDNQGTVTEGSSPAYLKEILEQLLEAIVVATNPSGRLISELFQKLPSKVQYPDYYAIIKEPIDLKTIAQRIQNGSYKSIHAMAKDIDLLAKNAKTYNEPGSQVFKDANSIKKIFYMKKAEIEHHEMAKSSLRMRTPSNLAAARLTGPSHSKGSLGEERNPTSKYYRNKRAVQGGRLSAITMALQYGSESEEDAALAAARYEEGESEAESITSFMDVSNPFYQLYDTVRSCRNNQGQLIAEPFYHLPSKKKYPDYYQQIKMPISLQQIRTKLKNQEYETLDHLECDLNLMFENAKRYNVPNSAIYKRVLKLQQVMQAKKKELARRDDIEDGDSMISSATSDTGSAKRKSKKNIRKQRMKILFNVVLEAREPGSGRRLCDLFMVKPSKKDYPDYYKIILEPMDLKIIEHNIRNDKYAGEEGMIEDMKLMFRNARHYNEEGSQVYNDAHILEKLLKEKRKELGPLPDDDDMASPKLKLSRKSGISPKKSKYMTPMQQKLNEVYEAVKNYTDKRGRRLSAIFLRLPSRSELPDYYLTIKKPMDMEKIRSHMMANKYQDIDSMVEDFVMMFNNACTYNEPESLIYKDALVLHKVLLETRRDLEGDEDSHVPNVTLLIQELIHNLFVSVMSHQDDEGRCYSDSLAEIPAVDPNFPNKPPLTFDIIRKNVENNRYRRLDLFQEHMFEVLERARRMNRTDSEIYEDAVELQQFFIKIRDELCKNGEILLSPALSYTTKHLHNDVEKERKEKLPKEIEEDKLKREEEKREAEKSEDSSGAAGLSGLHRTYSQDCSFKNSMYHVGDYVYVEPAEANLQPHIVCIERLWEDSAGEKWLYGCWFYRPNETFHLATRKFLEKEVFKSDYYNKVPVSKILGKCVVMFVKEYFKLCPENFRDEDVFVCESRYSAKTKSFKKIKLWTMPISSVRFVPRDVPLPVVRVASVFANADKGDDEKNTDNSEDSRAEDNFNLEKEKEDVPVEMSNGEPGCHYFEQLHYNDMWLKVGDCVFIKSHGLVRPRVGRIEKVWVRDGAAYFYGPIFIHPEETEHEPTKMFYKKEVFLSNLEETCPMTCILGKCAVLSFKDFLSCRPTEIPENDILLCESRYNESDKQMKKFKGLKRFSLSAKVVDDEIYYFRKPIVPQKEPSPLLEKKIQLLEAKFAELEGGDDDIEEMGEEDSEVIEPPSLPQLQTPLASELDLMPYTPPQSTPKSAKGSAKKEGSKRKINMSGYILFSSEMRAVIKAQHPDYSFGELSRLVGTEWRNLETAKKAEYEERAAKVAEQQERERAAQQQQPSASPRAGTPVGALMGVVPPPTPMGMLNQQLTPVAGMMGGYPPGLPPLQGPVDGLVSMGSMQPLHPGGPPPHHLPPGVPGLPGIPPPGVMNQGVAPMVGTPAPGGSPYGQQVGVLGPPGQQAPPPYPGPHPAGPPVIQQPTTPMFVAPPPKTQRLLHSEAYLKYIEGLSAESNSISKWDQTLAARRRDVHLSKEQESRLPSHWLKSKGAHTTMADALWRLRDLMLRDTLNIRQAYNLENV
UniProt O60264: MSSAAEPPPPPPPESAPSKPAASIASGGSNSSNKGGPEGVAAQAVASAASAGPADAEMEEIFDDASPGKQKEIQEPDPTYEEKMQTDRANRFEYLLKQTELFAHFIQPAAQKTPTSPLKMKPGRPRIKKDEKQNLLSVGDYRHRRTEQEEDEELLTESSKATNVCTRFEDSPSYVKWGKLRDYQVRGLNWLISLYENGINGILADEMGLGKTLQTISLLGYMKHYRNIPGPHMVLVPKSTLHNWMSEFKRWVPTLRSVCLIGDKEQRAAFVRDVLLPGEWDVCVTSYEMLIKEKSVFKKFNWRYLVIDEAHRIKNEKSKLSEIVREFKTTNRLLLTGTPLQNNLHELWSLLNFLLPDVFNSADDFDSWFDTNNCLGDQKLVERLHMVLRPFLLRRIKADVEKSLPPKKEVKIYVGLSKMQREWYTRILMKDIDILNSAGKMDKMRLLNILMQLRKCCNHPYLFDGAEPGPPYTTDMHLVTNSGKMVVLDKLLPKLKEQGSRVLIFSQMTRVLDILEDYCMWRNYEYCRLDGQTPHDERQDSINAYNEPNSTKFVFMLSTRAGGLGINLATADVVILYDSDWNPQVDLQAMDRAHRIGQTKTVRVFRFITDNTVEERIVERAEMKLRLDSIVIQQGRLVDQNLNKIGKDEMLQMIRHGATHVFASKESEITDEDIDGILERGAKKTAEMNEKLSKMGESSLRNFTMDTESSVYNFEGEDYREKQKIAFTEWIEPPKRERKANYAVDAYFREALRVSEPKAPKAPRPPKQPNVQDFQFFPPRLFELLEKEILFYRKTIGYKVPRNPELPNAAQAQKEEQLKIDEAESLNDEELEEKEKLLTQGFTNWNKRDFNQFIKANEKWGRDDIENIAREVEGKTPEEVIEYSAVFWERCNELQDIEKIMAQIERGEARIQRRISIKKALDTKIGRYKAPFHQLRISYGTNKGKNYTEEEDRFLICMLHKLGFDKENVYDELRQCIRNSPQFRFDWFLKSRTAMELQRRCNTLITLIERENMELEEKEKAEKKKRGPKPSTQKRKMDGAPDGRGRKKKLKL
UniProt Q8TAQ2: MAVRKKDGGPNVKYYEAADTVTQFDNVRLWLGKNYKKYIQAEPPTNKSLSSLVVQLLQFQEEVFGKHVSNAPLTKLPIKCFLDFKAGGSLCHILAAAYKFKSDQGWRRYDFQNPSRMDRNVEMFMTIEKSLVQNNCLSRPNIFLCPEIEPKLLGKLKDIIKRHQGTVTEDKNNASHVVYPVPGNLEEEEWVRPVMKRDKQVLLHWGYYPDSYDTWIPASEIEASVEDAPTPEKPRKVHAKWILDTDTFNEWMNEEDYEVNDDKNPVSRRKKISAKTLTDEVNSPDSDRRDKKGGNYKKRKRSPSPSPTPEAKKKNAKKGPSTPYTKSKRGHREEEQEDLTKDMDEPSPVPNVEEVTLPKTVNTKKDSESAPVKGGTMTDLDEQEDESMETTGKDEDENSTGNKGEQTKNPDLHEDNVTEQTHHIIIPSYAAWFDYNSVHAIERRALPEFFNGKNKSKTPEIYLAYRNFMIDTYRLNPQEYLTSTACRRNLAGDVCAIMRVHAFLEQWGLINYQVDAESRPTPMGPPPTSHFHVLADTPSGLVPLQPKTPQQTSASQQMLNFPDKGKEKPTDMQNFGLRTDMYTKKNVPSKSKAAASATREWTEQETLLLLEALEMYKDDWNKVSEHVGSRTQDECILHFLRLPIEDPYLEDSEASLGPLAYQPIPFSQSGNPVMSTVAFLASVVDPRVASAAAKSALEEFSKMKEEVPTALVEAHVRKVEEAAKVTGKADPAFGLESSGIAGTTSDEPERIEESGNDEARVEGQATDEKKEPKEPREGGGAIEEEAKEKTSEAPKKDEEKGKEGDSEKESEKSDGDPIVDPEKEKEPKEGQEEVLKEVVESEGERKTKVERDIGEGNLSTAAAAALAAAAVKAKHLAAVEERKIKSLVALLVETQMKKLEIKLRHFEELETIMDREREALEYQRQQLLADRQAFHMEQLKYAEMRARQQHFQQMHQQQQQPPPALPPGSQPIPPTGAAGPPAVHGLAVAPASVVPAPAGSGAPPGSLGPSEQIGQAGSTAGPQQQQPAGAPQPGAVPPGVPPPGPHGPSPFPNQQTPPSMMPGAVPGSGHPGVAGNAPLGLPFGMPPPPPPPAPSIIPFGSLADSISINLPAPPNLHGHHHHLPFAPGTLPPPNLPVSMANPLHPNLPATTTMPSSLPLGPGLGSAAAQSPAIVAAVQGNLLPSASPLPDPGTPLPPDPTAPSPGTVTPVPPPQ
UniProt Q96GM5: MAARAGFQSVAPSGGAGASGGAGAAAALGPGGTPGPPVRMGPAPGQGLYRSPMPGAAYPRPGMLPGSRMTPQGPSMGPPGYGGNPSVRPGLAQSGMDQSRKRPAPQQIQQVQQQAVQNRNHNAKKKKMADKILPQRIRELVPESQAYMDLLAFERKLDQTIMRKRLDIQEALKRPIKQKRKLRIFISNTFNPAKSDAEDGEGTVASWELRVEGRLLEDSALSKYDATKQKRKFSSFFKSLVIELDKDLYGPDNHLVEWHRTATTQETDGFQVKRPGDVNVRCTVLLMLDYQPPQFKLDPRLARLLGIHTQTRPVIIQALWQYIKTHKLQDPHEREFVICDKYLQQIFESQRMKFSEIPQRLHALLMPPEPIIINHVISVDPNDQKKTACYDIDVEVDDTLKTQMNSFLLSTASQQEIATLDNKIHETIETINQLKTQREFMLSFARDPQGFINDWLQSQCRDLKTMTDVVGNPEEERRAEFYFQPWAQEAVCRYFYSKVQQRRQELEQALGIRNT

Results are given in words; binding and its absence hold for the method and conditions named. Binding seen in cells or lysates may run through a third protein. A yes stands for co-enrichment or nearness to the bait. Other partners may have been found.

The test concerns the target cGAS (cyclic GMP-AMP synthase) of HCT116 cells (human (endogenous in HCT116)) (UniProt Q8N884). As to the kind of experiment: affinity purification with mass spectrometry; cGAS immunoprecipitated from the intranuclear (chromatin) fraction of HCT116 cells (ProteoExtract Kit and Chromatin Extraction Kit), LC-MS/MS, compared with a control group.
Consider PBRM1 (from UniProt Q86U86 1-1689), for which the binding result is given as “binds”.

As for SMARCA5 (from UniProt O60264 1-1052), the binding entry is reported as “binds”.

In the case of SMARCA4 (from UniProt P51532 1-1647), the binding entry is “binds”.

SMARCC2 (from UniProt Q8TAQ2 1-1214): the binding entry was “binds”.

In the case of SMARCD1 (from UniProt Q96GM5 1-515), the binding result is on record as “binds”.
